From PubChem BioAssay AID248 (DTP/NCI, 2004)
The list is a part of this screen's results and no random one: it gathers tests that were run many times, whatever their T/C, doses with no T/C, and many T/C values between a quarter and a half above the control. Further doses and runs are listed elsewhere. T/C is the treated group as % of the vehicle group. Some doses have a count of surviving animals in place of a T/C: the source holds a T/C of zero for them, seemingly a mark for toxic or unscored doses. Some survivor counts are full or nearly so, which does not show that the dose was tolerated: the source hardly ever lists a survival T/C far under the control, and the zero likely stands for such cases as well. Survivors were counted at the toxicity check, usually on the fifth day, unless a day is given; later deaths do not show. Schedule codes are those of the source, taken here to give the interval after Q, in days (D) or hours (H), and the number of doses after X. Some schedules carry Z or #; the key to these is not given. Signs of the kind (2×) give the number of equal values in this list. Some entries hold several experiments; the values are given in rising order. Some structures stand for samples that the source files as different forms (salt, stereo form or complex); doses refer to the form tested. For survival time, the PubChem record calls one and a half times the control and up active, and a quarter to a half above the control has no call in these data; cut-offs in other NCI protocols can differ.

System: L1210 leukemia ip in BDF1 mice, survival T/C
Experiment: NCI In Vivo Anticancer Drug Screen. Data for tumor model L1210 Leukemia (intraperitoneal) in B6D2F1 (BDF1) mice
Conditions: T/C endpoint: mean survival time, higher T/C = longer survival
[1] = dose: 100.0 mg/kg/injection, schedule: Q01DX009 (ip), vehicle: saline
[2] = dose: 100.0 mg/kg/injection, schedule: Q04DX003 (ip), vehicle: saline
[3] = dose: 200.0 mg/kg/injection, schedule: Q04DX003 (ip), vehicle: saline
[4] = dose: 400.0 mg/kg/injection, schedule: Q04DX003 (ip), vehicle: saline
[5] = dose: 100.0 mg/kg/injection, schedule: Q04DX002 (ip), vehicle: saline with Tween-80
[6] = dose: 200.0 mg/kg/injection, schedule: Q04DX002 (ip), vehicle: saline with Tween-80

Compound: CC(C(=O)N1c2ccccc2Sc2ccccc21)[N+](C)(C)C (stereo unspecified)
- survivor count [1]: 3 of 6
- survivor count [2]: 2 of 6
- survivor count [3]: 0 of 6 (2×)
- survivor count [4]: 0 of 6 and 1 of 6

Compound: CC1CC([P+](c2ccccc2)(c2ccccc2)c2ccccc2)=NN1CC[P+](c1ccccc1)(c1ccccc1)c1ccccc1 (stereo unspecified)
- survivor count (dose: 25.0 mg/kg/injection, schedule: Q01DX001 (ip), vehicle: saline): 0 of 6
- survivor count (dose: 50.0 mg/kg/injection, schedule: Q01DX001 (ip), vehicle: saline): 0 of 6
- survivor count (dose: 100.0 mg/kg/injection, schedule: Q01DX001 (ip), vehicle: saline): 0 of 6
- survivor count (dose: 200.0 mg/kg/injection, schedule: Q01DX001 (ip), vehicle: saline): 0 of 6
- survivor count (dose: 400.0 mg/kg/injection, schedule: Q01DX001 (ip), vehicle: saline): 0 of 6

Compound: CC(=O)Nc1ccc(NC(=S)NC(=O)COc2ccccc2)cc1
- T/C [5]: 94, 98, 100 % of control
- survivor count [5]: 6 of 6
- T/C [6]: 86, 106, 107 % of control
- survivor count [6]: 3 of 3
- T/C (dose: 400.0 mg/kg/injection, schedule: Q04DX002 (ip), vehicle: saline with Tween-80): 91, 93, 94, 116 % of control

Compound: CC(N)Cc1ccc2c(c1)OCO2 (stereo unspecified)
- survivor count (dose: 50.0 mg/kg/injection, schedule: Q01DX009 (ip), vehicle: saline): 3 of 6
- survivor count [1]: 3 of 6 (2×)
- survivor count [2]: 3 of 6
- survivor count (dose: 200.0 mg/kg/injection, schedule: Q04DX003 (ip), vehicle: Klucel (hydroxypropylcellulose) (HPC)): 1 of 6
- survivor count [3]: 1 of 4
- survivor count (dose: 400.0 mg/kg/injection, schedule: Q04DX003 (ip), vehicle: Klucel (hydroxypropylcellulose) (HPC)): 0 of 6
- survivor count [4]: 0 of 4

Compound: CCOC(=O)c1c[nH]c2cc([N+](=O)[O-])ccc2c1=O
- survivor count (dose: 100.0 mg/kg/injection, schedule: Q04DX003 (ip), vehicle: saline with Tween-80): 6 of 6

Compound: COc1cc2c3c(c4cc(OC)c(OC)cc4c2cc1OC)CN1CCC[C@H]1C3
- T/C (dose: 12.5 mg/kg/injection, schedule: Q01DX015 (ip), vehicle: water): 131 % of control
- survivor count (dose: 14.0 mg/kg/injection, schedule: Q01DX015 (ip), vehicle: water): 0 of 6
- T/C (dose: 15.0 mg/kg/injection, schedule: Q01DX Z (ip), vehicle: water): 130 % of control
- survivor count (dose: 16.0 mg/kg/injection, schedule: Q01DX Z (ip), vehicle: water): 1 of 6
- survivor count (dose: 20.0 mg/kg/injection, schedule: Q01DX015 (ip), vehicle: water): 0 of 6
- survivor count (dose: 30.0 mg/kg/injection, schedule: Q01DX015 (ip), vehicle: water): 0 of 6
- survivor count (dose: 30.0 mg/kg/injection, schedule: Q01DX Z (ip), vehicle: water): 4 of 6
- survivor count (dose: 40.0 mg/kg/injection, schedule: Q01DX015 (ip), vehicle: water): 0 of 6
- survivor count (dose: 50.0 mg/kg/injection, schedule: Q01DX015 (ip), vehicle: water): 0 of 6
- survivor count (dose: 60.0 mg/kg/injection, schedule: Q01DX Z (ip), vehicle: water): 0 of 6
- survivor count (dose: 60.0 mg/kg/injection, schedule: Q02DX Z (ip), vehicle: water): 4 of 6
- T/C (dose: 62.5 mg/kg/injection, schedule: Q01DX Z (ip), vehicle: saline): 138 % of control
- T/C (dose: 125.0 mg/kg/injection, schedule: Q01DX Z (ip), vehicle: saline): 144 % of control
- T/C (dose: 500.0 mg/kg/injection, schedule: Q01DX Z (ip), vehicle: saline): 130 % of control
